Laboratory results: US6068687A, “Azo dyes and their preparation and use” (Ilford Imaging Switzerland GmbH, priority 1997, dated 2000)

How the values were obtained:
[1] = Light fastness of printed samples (density loss); details: 6500 W Xenon lamp, total illumination 40 kJoule/cm^2
Method: (§1) 100 g of each ink were prepared by heating the necessary components from Table 3 (all amounts are indicated in grams) together with water at a temperature of 50° C. under stirring for one hour. The resulting solution was cooled down to 20° C., its pH value was adjusted to 7.5 and the solution was passed through a Millipore® filter of 0.5 μm pore diameter.
(§2) A recording medium for testing purposes was prepared in the following way: 30 g of gelatin with a high isoelectric point (type St 70,810, available from Deutsche Gelatinefabriken, Eberbach, Germany) were dissolved in 360 ml of deionised water. 1 g of a surfactant (Olin 10G, available from Olin Corporation, Norwalk, USA) were added to this solution. Immediately before coating 6.6 g of a solution of 2-(4-dimethyl-carbamoyl-pyridino)-ethanesulfonate (3%) were added and the pH value was adjusted to 6.5. 100 g/m^2 of this solution was then coated onto a resin coated paper support using a bar coater. The recording medium prepared in this way was dried for 12 hours.
(§3) The inks were then jetted onto this recording medium with a type 3024 IRIS ink jet printer to check their properties during printing as well as the quality of the printed images.
The printed samples were irradiated in an ATLAS Ci35A Weather-O-Meter®with a 6500 W Xenon lamp until a total illumination of 40 kJoule/cm^2 was reached. The density loss was measured with an X-Rite® densitometer and evaluated in the following way: […]

[2] = Water fastness of printed samples (bleeding); set-up: key: ⊕: No bleeding; .diamond.: Slight bleeding; .O slashed.: Severe bleeding; details: soaked 1 minute, room temperature, deionised water
Method: as §1, §2, §3
The printed samples were soaked for 1 minute at room temperature in deionised water. Afterwards bleeding was evaluated in the following way: […]

[3] = Image quality of printed images (sharpness and optical density); set-up: key: ⊕: No blurring and high density; .diamond.: Slight blurring and high density; .O slashed.: Severe blurring and low density; details: gelatin coated recording medium
Method: as §1, §2, §3
The printed images were evaluated in respect of sharpness and optical density in the following way: […]

[4] = Smudge resistance of printed samples; set-up: key: ⊕: No or little smear; .diamond.: Slight smear; .O slashed.: Severe smear; details: dye patch of high density rubbed with slightly wet finger
Method: as §1, §2, §3
The smudge behavior of printed samples was determined by rubbing a dye patch of high density with a slightly wet finger. The smudge resistance is indicated in the following way: […]

Structure (SMILES)	(H) Light fastness [1]	(G) Water fastness [2]	(E) Image quality [3]	(F) Smudge resistance [4]
CCOc1nc(Nc2cc(C)c(N=Nc3cc(S(=O)(=O)O)c4cccc(S(=O)(=O)O)c4c3)cc2OC)nc(SCCCS(=O)(=O)O)n1 [(100)]	⊕ (Less than 10% density loss)	⊕	⊕	⊕
COc1cc(N=Nc2cc(S(=O)(=O)O)c3cccc(S(=O)(=O)O)c3c2)c(C)cc1Nc1nc(SCCCS(=O)(=O)O)nc(SCCCS(=O)(=O)O)n1 [(2)]	⊕ (Less than 10% density loss)	.diamond.	⊕	⊕
CCN(c1ccccc1)c1nc(Nc2cc(S(=O)(=O)O)cc3cc(S(=O)(=O)O)c(N=Nc4ccccc4S(=O)(=O)O)c(O)c23)nc(SCCCS(=O)(=O)O)n1 [(117)]	.O slashed. (More than 10% density loss)	⊕	⊕	⊕
Nc1ccc2cc(S(=O)(=O)O)cc(O)c2c1N=Nc1ccc(Nc2nc(NCCO)nc(Nc3cccc(S(=O)(=O)O)c3)n2)cc1S(=O)(=O)O [(1)]	⊕ (Less than 10% density loss)	.diamond.	⊕	.diamond.
Nc1ccc2cc(S(=O)(=O)O)cc(O)c2c1N=Nc1ccc(Nc2nc(SCCCS(=O)(=O)O)nc(N(CCO)CCO)n2)cc1S(=O)(=O)O [(121)]	⊕ (Less than 10% density loss)	⊕	⊕	⊕
COc1cc(N=Nc2cc(S(=O)(=O)O)c3cccc(S(=O)(=O)O)c3c2)c(C)cc1Nc1nc(SCCCS(=O)(=O)O)nc(N(C)CCO)n1 [(120)]	⊕ (Less than 10% density loss)	⊕	⊕	⊕
CCOc1nc(Nc2ccc(N=Nc3c(N)ccc4cc(S(=O)(=O)O)cc(O)c34)c(S(=O)(=O)O)c2)nc(SCCCS(=O)(=O)O)n1 [(113)]	⊕ (Less than 10% density loss)	⊕	⊕	⊕
